Measurements taken from patent publication US4500707A, “Nucleosides useful in the preparation of polynucleotides” (University Patents, Inc., priority 1982, dated 1985).

Assay: Color of trityl cations of triarylmethyl alcohols, tlc plates exposed to hydrochloric acid vapor (Table V)
Type: physicochemical
Conditions: ZnBr2, group removed from the oligonucleotide
In the case of `COc1ccc(C(O)(c2ccccc2)c2ccc(OC)cc2)cc1` [R1 = R2 = c; R3 = a], the “color with ZnBr2” value is reported as “orange”.

Same assay, conditions: triarylmethyl alcohol, tlc, hydrochloric acid vapor
With `OC(c1ccccc1)(c1ccccc1)c1ccccc1` [R1 = R2 = R3 = a] the Color was “Yellow”. For `COc1ccc(C(O)(c2ccc(OC)cc2)c2ccc(OC)cc2)cc1` [R1 = R2 = R3 = c], the Color was “Red”. For `OC(c1ccc(Cl)cc1)(c1ccc(Cl)cc1)c1ccc(Cl)cc1` [R1 = R2 = R3 = g], the Color was “Yellow”. With `COc1ccccc1C(O)(c1ccccc1)c1ccccc1` [R1 = R2 = a; R3 = b] the Color was “Yellow”. For `COc1ccc(C(O)(c2ccccc2)c2ccccc2)cc1` [R1 = R2 = a; R3 = c], the Color was “Yellow-Orange”. For `COc1cccc(C(O)(c2ccccc2)c2ccccc2)c1` [R1 = R2 = a; R3 = d], the Color was “Yellow”. In the case of `O=[N+]([O-])c1ccc(C(O)(c2ccccc2)c2ccccc2)cc1` [R1 = R2 = a; R3 = i], the Color is reported as “Red-Violet”. For `OC(c1ccccc1)(c1ccccc1)c1ccccc1Cl` [R1 = R2 = a; R3 = j], the Color was “Yellow”. In the case of `CC(C)(C)c1ccc(C(O)(c2ccccc2)c2ccccc2)cc1` [R1 = R2 = a; R3 = k], the Color is reported as “Yellow”. With `OC(c1ccccc1)(c1ccccc1)c1ccco1` [R1 = R2 = a; R3 = m] the Color was “Colorless”. In the case of `OC(c1ccccc1)(c1ccccc1)c1cnc2ccccc2c1` [R1 = R2 = a; R3 = q], the Color is reported as “Colorless”. In the case of `OC(c1ccccc1)(c1ccccc1)c1cncnc1` [R1 = R2 = a; R3 = r], the Color is reported as “Colorless”. In the case of `COc1ccccc1C(O)(c1ccccc1)c1ccccc1OC` [R1 = R2 = b; R3 = a], the Color is reported as “Black”. For `COc1ccccc1C(O)(c1ccco1)c1ccccc1OC` [R1 = R2 = b; R3 = m], the Color was “Lilac”. In the case of `COc1ccccc1C(O)(c1ccccc1OC)c1cccc2ccccc12` [R1 = R2 = b; R3 = n], the Color is reported as “Blue”. For `COc1ccccc1C(O)(c1ccc(-c2ccccc2)cc1)c1ccccc1OC` [R1 = R2 = b; R3 = p], the Color was “Purple”. In the case of `COc1ccc(C(O)(c2ccccc2)c2ccc(OC)cc2)cc1` [R1 = R2 = c; R3 = a], the Color is reported as “Orange”. With `COc1ccc(C(O)(c2ccc(OC)cc2)c2ccc(C(C)(C)C)cc2)cc1` [R1 = R2 = c; R3 = k] the Color was “Orange”. In the case of `COc1ccc(C(O)(c2ccc(OC)cc2)c2ccco2)cc1` [R1 = R2 = c; R3 = m], the Color is reported as “Yellow”. For `COc1ccc(C(O)(c2ccc(OC)cc2)c2cccc3ccccc23)cc1` [R1 = R2 = c; R3 = n], the Color was “Violet”. With `COc1ccc(C(O)(c2ccc(OC)cc2)c2ccc3ccccc3c2)cc1` [R1 = R2 = c; R3 = o] the Color was “Burnt-Orange”. With `COc1ccc(C(O)(c2ccc(OC)cc2)c2ccc(-c3ccccc3)cc2)cc1` [R1 = R2 = c; R3 = p] the Color was “Purple”. With `COc1ccc(C(O)(c2cccc(OC)c2)c2cccc(OC)c2)cc1` [R1 = R2 = d; R3 = c] the Color was “Red”. With `COc1cccc(C(O)(c2ccc(C(C)(C)C)cc2)c2cccc(OC)c2)c1` [R1 = R2 = d; R3 = k] the Color was “Yellow”. For `COc1cccc(C(O)(c2cccc(OC)c2)c2ccco2)c1` [R1 = R2 = d; R3 = m], the Color was “Yellow”. With `COc1ccc(C(O)(c2ccc(F)cc2)c2ccc(F)cc2)cc1` [R1 = R2 = e; R3 = c] the Color was “Red-Orange”. For `CC(C)(C)c1ccc(C(O)(c2ccc(F)cc2)c2ccc(F)cc2)cc1` [R1 = R2 = e; R3 = k], the Color was “Yellow-Orange”. With `OC(c1ccc(F)cc1)(c1ccc(F)cc1)c1ccco1` [R1 = R2 = e; R3 = m] the Color was “Yellow”. In the case of `COc1ccc(C(O)(c2ccccc2[N+](=O)[O-])c2ccccc2[N+](=O)[O-])cc1` [R1 = R2 = f; R3 = c], the Color is reported as “Yellow”. With `CC(C)(C)c1ccc(C(O)(c2ccccc2[N+](=O)[O-])c2ccccc2[N+](=O)[O-])cc1` [R1 = R2 = f; R3 = k] the Color was “Yellow”. With `O=[N+]([O-])c1ccccc1C(O)(c1ccco1)c1ccccc1[N+](=O)[O-]` [R1 = R2 = f; R3 = m] the Color was “Colorless”. In the case of `OC(c1ccccc1)(c1ccc(Cl)cc1)c1ccc(Cl)cc1` [R1 = R2 = g; R3 = a], the Color is reported as “Yellow”. With `COc1ccc(C(O)(c2ccc(Cl)cc2)c2ccc(Cl)cc2)cc1` [R1 = R2 = g; R3 = c] the Color was “Red-Orange”. In the case of `CC(C)(C)c1ccc(C(O)(c2ccc(Cl)cc2)c2ccc(Cl)cc2)cc1` [R1 = R2 = g; R3 = k], the Color is reported as “Yellow”. In the case of `OC(c1ccc(Cl)cc1)(c1ccc(Cl)cc1)c1ccco1` [R1 = R2 = g; R3 = m], the Color is reported as “Yellow-Orange”. For `OC(c1ccccc1)(c1ccc(-c2ccccc2)cc1)c1ccc(-c2ccccc2)cc1` [R1 = R2 = p; R3 = a], the Color was “Violet-Red”. With `COc1ccc(C(O)(c2ccc(-c3ccccc3)cc2)c2ccc(-c3ccccc3)cc2)cc1` [R1 = R2 = p; R3 = c] the Color was “Red”. With `CC(C)(C)c1ccc(C(O)(c2ccc(-c3ccccc3)cc2)c2ccc(-c3ccccc3)cc2)cc1` [R1 = R2 = p; R3 = k] the Color was “Colorless”. With `OC(c1ccc(-c2ccccc2)cc1)(c1ccc(-c2ccccc2)cc1)c1ccco1` [R1 = R2 = p; R3 = m] the Color was “Peach”. For `OC(c1ccc(-c2ccccc2)cc1)(c1ccc(-c2ccccc2)cc1)c1cccc2ccccc12` [R1 = R2 = p; R3 = n], the Color was “Deep Purple”. For `OC(c1ccccc1)(c1cnc2ccccc2c1)c1cnc2ccccc2c1` [R1 = R2 = q; R3 = a], the Color was “Colorless”. With `OC(c1ccccc1)(c1cncnc1)c1cncnc1` [R1 = R2 = r; R3 = a] the Color was “Colorless”. For `COc1ccc(C(O)(c2ccccc2)c2cccc3ccccc23)cc1` (stereo not drawn) [R1 = a; R2 = c; R3 = n], the Color was “Red”. For `COc1ccc(C(O)(c2ccccc2)c2ccc(F)cc2)cc1` (stereo not drawn) [R1 = a; R2 = e; R3 = c], the Color was “Yellow-Orange”. With `OC(c1ccccc1)(c1ccc(F)cc1)c1ccc(Cl)cc1` (stereo not drawn) [R1 = a; R2 = e; R3 = g] the Color was “Yellow”. With `Cc1ccc(C(O)(c2ccccc2)c2ccc(F)cc2)cc1` (stereo not drawn) [R1 = a; R2 = e; R3 = h] the Color was “Yellow”. With `OC(c1ccccc1)(c1ccc(F)cc1)c1cccc2ccccc12` (stereo not drawn) [R1 = a; R2 = e; R3 = n] the Color was “Green”. With `COc1ccccc1C(O)(c1ccc(Cl)cc1)c1ccc(Cl)cc1` [R1 = b; R2 = R3 = g] the Color was “Yellow”. With `COc1ccccc1C(O)(c1ccccc1)c1ccc([N+](=O)[O-])cc1` (stereo not drawn) [R1 = b; R2 = a; R3 = i] the Color was “Red”. For `COc1ccccc1C(O)(c1ccccc1)c1ccc(Cl)cc1` (stereo not drawn) [R1 = b; R2 = g; R3 = a], the Color was “Yellow”. For `COc1ccc(C(O)(c2ccccc2)c2ccc([N+](=O)[O-])cc2)cc1` (stereo not drawn) [R1 = c; R2 = a; R3 = i], the Color was “Deep Purple”. With `COc1ccc(C(O)(c2ccccc2)c2ccccc2Cl)cc1` (stereo not drawn) [R1 = c; R2 = a; R3 = j] the Color was “Deep Burnt Orange”. With `COc1ccc(C(O)(c2ccccc2)c2ccccc2OC)cc1` (stereo not drawn) [R1 = c; R2 = b; R3 = a] the Color was “Red”. For `COc1ccc(C(O)(c2ccccc2)c2cccc(OC)c2)cc1` (stereo not drawn) [R1 = c; R2 = d; R3 = a], the Color was “Orange”. For `COc1ccc(C(O)(c2ccccc2)c2ccc(Cl)cc2)cc1` (stereo not drawn) [R1 = c; R2 = g; R3 = a], the Color was “Yellow-Orange”. In the case of `COc1ccc(C(O)(c2ccccc2)c2ccc(Br)cc2)cc1` (stereo not drawn) [R1 = c; R2 = l; R3 = a], the Color is reported as “Yellow Orange”. For `COc1ccc(C(O)(c2ccccc2)c2ccc(-c3ccccc3)cc2)cc1` (stereo not drawn) [R1 = c; R2 = p; R3 = a], the Color was “Red-Orange”. In the case of `COc1ccc(C(O)(c2ccccc2)c2cnc3ccccc3c2)cc1` (stereo not drawn) [R1 = c; R2 = q; R3 = a], the Color is reported as “Colorless”. For `COc1ccc(C(O)(c2ccccc2)c2cncnc2)cc1` (stereo not drawn) [R1 = c; R2 = r; R3 = a], the Color was “Colorless”. In the case of `COc1cccc(C(O)(c2ccccc2)c2ccc([N+](=O)[O-])cc2)c1` (stereo not drawn) [R1 = d; R2 = a; R3 = i], the Color is reported as “Burnt-Orange”. With `COc1cccc(C(O)(c2ccccc2)c2ccccc2Cl)c1` (stereo not drawn) [R1 = d; R2 = a; R3 = j] the Color was “Carmine”. In the case of `OC(c1ccccc1)(c1ccccc1)c1ccc(F)cc1` [R1 = e; R2 = R3 = a], the Color is reported as “Orange”. With `O=[N+]([O-])c1ccc(C(O)(c2ccccc2)c2ccc(F)cc2)cc1` (stereo not drawn) [R1 = e; R2 = a; R3 = i] the Color was “Red-Violet”. With `OC(c1ccccc1)(c1ccc(F)cc1)c1ccccc1Cl` (stereo not drawn) [R1 = e; R2 = a; R3 = j] the Color was “Orange”. With `O=[N+]([O-])c1ccccc1C(O)(c1ccccc1)c1ccccc1` [R1 = f; R2 = R3 = a] the Color was “Yellow”. With `O=[N+]([O-])c1ccc(C(O)(c2ccccc2)c2ccccc2[N+](=O)[O-])cc1` (stereo not drawn) [R1 = f; R2 = a; R3 = i] the Color was “Yellow”. For `O=[N+]([O-])c1ccccc1C(O)(c1ccccc1)c1ccccc1Cl` (stereo not drawn) [R1 = f; R2 = a; R3 = j], the Color was “Yellow”. For `OC(c1ccccc1)(c1ccccc1)c1ccc(Cl)cc1` [R1 = g; R2 = R3 = a], the Color was “Yellow”. For `O=[N+]([O-])c1ccc(C(O)(c2ccccc2)c2ccc(Cl)cc2)cc1` (stereo not drawn) [R1 = g; R2 = a; R3 = i], the Color was “Deep Red”. With `OC(c1ccccc1)(c1ccc(Cl)cc1)c1ccccc1Cl` (stereo not drawn) [R1 = g; R2 = a; R3 = j] the Color was “Yellow”. For `OC(c1ccccc1)(c1ccc(Cl)cc1)c1ccc(Br)cc1` (stereo not drawn) [R1 = g; R2 = l; R3 = a], the Color was “Yellow”. With `Cc1ccc(C(O)(c2ccccc2)c2ccccc2)cc1` [R1 = h; R2 = R3 = a] the Color was “Yellow”. In the case of `Cc1ccc(C(O)(c2ccc(Cl)cc2)c2ccc(Cl)cc2)cc1` [R1 = h; R2 = R3 = g], the Color is reported as “Canary Yellow”. In the case of `Cc1ccc(C(O)(c2ccccc2)c2ccc(Cl)cc2)cc1` (stereo not drawn) [R1 = h; R2 = g; R3 = a], the Color is reported as “Canary Yellow”. For `Cc1ccc(C(O)(c2ccccc2)c2ccccc2Cl)cc1` (stereo not drawn) [R1 = h; R2 = j; R3 = a], the Color was “Canary Yellow”. For `Cc1ccc(C(O)(c2ccccc2)c2ccc(Br)cc2)cc1` (stereo not drawn) [R1 = h; R2 = l; R3 = a], the Color was “Canary Yellow”. In the case of `OC(c1ccccc1)(c1ccccc1)c1cccc2ccccc12` [R1 = n; R2 = R3 = a], the Color is reported as “Green”. In the case of `OC(c1ccc(Cl)cc1)(c1ccc(Cl)cc1)c1cccc2ccccc12` [R1 = n; R2 = R3 = g], the Color is reported as “Green”. In the case of `OC(c1ccccc1)(c1ccc(Cl)cc1)c1cccc2ccccc12` (stereo not drawn) [R1 = n; R2 = g; R3 = a], the Color is reported as “Green”.

Same assay, conditions: triarylmethyl alcohol, tlc, hydrochloric acid vapor; listed as R1 = c; R2 = j; R3 = a
For `COc1ccc(C(O)(c2ccccc2)c2ccccc2Cl)cc1` (stereo not drawn) [R1 = c; R2 = a; R3 = j], the Color was “Yellow-Orange”.
